Measurements published in patent US20180325909A1, “COMBINATION TREATMENT OF SPECIFIC FORMS OF EPILEPSY” (ZOGENIX INTERNATIONAL LIMITED, priority 2015, published 2018).

What was measured:
[1] = system: homozygous scn1Lab−/− mutants; parameters: species or system Danio rerio; conditions: in vivo
Method: Zebrafish embryos (Danio rerio) heterozygous for the scn1Lab mutation (scn1Lab+/−) were backcrossed with Tupfel longfin wildtype (WT scn1Lab+/+). Adult zebrafish were housed at 28.0° C., on a 14/10 hour light/dark cycle under standard aquaculture conditions. Fertilized eggs were collected via natural spawning. Anaesthetized fish (tricaine 0.02%) were fin-clipped and genotyped by PCR. After genotyping, samples were purified (MinElute PCR Purification Kit) and sequenced by LGC Genomics. Age-matched Tupfel longfin wildtype larvae were used as control group (WT scn1Lab+/+).
To evaluate the locomotor activity of homozygous scn1Lab−/− mutants and control WT scn1Lab+/+, zebrafish larvae were placed in a 96-well plate in 100 μL of embryo medium from 4 to 8 dpf. […] The total distance in large movements was recorded and quantified using ZebraLab™ software (Viewpoint, Lyon, France). […]
Scn1Lab−/− mutants and WT scn1Lab+/+ larvae were arrayed in the same plate and treated at 6 days post fertilization (dpf) with fenfluramine (25 μM), functional analogs (at their MTC) or VHC in individual wells of a 96-well plate. […] Furthermore these larvae were analyzed after more than 22 hours incubation (7 dpf), i.e. long treatment. The total locomotor activity was quantified using the parameter lardist and plotted in cm. […]

[2] = system: homozygous scn1Lab−/− mutants; parameters: species or system Danio rerio; conditions: in vivo; remark: listed apart in the source
Method: Epileptiform activity was measured by open-field recordings in the zebrafish larval forebrain at 7 dpf. Homozygous scn1Lab−/− mutants and control WT scn1Lab+/+ were embedded in 2% low-melting-point agarose (Invitrogen) to position a glass electrode into the forebrain. […] Single recordings were performed for 10 min. […] Spontaneous epileptiform events were taken into account when the amplitude exceeded three times the background noise and lasted longer than 50 milliseconds (ms).
Epileptiform activity was measured by open-field recordings in the zebrafish larval forebrain at 7 dpf, as described above. […] Recordings of 7 dpf larvae, from at least 8 scn1Lab−/− mutant larvae were taken per experimental condition. […] Electrographic recordings were quantified for the different treatment conditions.

For `CCN(CC)C(=O)N[C@H]1C=C2c3cccc4[nH]cc(c34)C[C@H]2N(C)C1` [lisuride, 3-[(6aR,9S)-7-methyl-6,6a,8,9-tetrahydro-4H-indolo[4,3-fg]quinoline-9-yl]-1,1-diethylurea], the “inhibition of locomotor activity in mutant fish embryos (Example 2)” value [1] was “potent inhibitors” and the “inhibition of epileptiform activity in mutant fish embryos (Example 2)” value [2] was “potent inhibitors”.
